Results from PubChem BioAssay AID540276 (National Center for Advancing Translational Sciences (NCATS), 2011).
The campaign covered roughly 300,000 compounds. About 5,400 (1.8%) were called active. The shares of active, inactive and inconclusive entries below differ from those in the screen. The call rests on the fitted dose curve; tested in HEK293 cells. A potency beside an inconclusive call is a rough fit, not a confirmed value.

Assay: qHTS for inhibitors of binding or entry into cells for Marburg Virus
Conditions: Marburg virus pseudotyped entry inhibition, cell reporter; series mostly up to 37.8 µM
Potency means the concentration at half of the fitted maximal effect.

Row | SMILES | Potency
1 | COC(=O)c1sc(NC(=O)CSc2nnnn2C)nc1C | inconclusive: 6.31 µM [activator, single point]
2 | COc1ccccc1CCC(=O)N(CCC1=CCCCC1)c1c(N)n(Cc2ccccc2)c(=O)[nH]c1=O | inconclusive: 11.2 µM [inhibitor, single point]
3 | CCOc1ccc(C(=O)NC(=S)NCc2cccnc2)cc1[N+](=O)[O-] | inconclusive: 0.708 µM [inhibitor, single point]
4 | CC(=O)NC1=NN(C(C)=O)C(C)(c2ccc(Br)cc2)S1 (stereo not given) | inconclusive: 10 µM [inhibitor, partial curve]
5 | O=C(/C=C/c1ccc([N+](=O)[O-])cc1)NCc1cccnc1 | inactive
6 | CCOc1ccc(/C=C/C(=O)Nc2ccc3nc(N(CC)CC)cc(C)c3c2)cc1OC | active: 11.2 µM
7 | Cc1ccc(C)c(NC(=S)NC2CC3CCC(C2)N3Cc2ccco2)c1 (stereo not given) | inconclusive: 1.46 µM [inhibitor, full curve]
8 | Cc1ccc(C(=O)Nc2nc(=O)n(C(=O)c3ccccc3C)s2)cc1 | inconclusive: 11.2 µM [activator, partial curve, poor fit]
9 | CC1CCCCC1NC(=O)/C(C#N)=C/C=C/c1ccccc1[N+](=O)[O-] (stereo not given) | active: 2.82 µM
10 | O=C1N=C(N2CCOCC2)S/C1=C/c1ccc(-c2ccc(F)cc2)o1 | active: 2.51 µM
11 | Cc1ccc(N2CC(C(=O)Nc3nnc(SCC(N)=O)s3)CC2=O)cc1C (stereo not given) | inactive
12 | O=C1OC(c2cc(Br)c(O)c(Br)c2)c2ccccc21 (stereo not given) | inactive
13 | c1cn2cc(-c3ccc4c(c3)OCO4)nc2s1 | inconclusive: 18.3 µM [inhibitor, single point]
14 | CCOC(=O)Nc1ccc([N+](=O)[O-])cc1OC | inactive
15 | CCOc1ccc2nc(NC(=O)c3cccc(-c4cc5ccccc5oc4=O)c3)sc2c1 | inconclusive: 14.1 µM [inhibitor, single point]
16 | CN(C)CCNCc1ccc(OC2CCCC2)cc1 | inconclusive: 29.1 µM [inhibitor, single point]
17 | C=CCn1c(CC(=O)OC)csc1=Nc1ccc(C(C)=O)cc1 | inactive
18 | CCC(C)(C)NC(=O)C(c1ccco1)N(C(=O)CNC(=O)c1cccs1)c1cccnc1 (stereo not given) | inconclusive: 0.259 µM [inhibitor, single point]
19 | O=C(Cn1nc2ccccc2n1)N/N=C/c1cc(Cl)cc([N+](=O)[O-])c1O | inconclusive: 35.5 µM [inhibitor, single point]
20 | CC(C)Oc1ccc(S(=O)(=O)N2CCCCC2)cc1NC(=O)C1CSC2(C)CCC(=O)N12 (stereo not given) | inconclusive: 0.112 µM [inhibitor, full curve, poor fit]
21 | Nc1nnn(CC(=O)N/N=C/c2ccccc2Cl)n1 | inactive
22 | Cc1ccc2c(c1)cc1c(=O)n(Cc3ccccc3Cl)nc(C)n12 | inconclusive: 3.16 µM [activator, partial curve, poor fit]
23 | Cc1cccc(NC(=O)c2ccc3c(c2)OCCO3)c1C | inconclusive: 1.41 µM [activator, full curve, poor fit]
24 | O=C(c1cccn2c(=O)c3cc4ccccc4cc3nc12)N1CCN(c2ccccc2)CC1 | inactive

Row | SMILES | Potency
25 | Cn1c(=O)c2ncn(CC(=O)N/N=C/c3ccco3)c2n(C)c1=O | inactive
26 | Fc1ccc(-n2cc(-c3ccccc3)c3c(=S)nc[nH]c32)cc1 | inconclusive: 17.8 µM [inhibitor, single point]
27 | Cc1ccc(C)c(N2CCN(C(=O)c3ccc(Cn4c(=O)[nH]c5ccccc5c4=O)cc3)CC2)c1 | inconclusive: 29.1 µM [inhibitor, single point]
28 | CNC(=S)N/N=C/c1cc(C)n(-c2ccc(Cl)c(Cl)c2)c1C | inconclusive: 35.5 µM [inhibitor, single point]
29 | CC(=O)c1cccc(NC(=O)C(OC(=O)c2ccccc2NS(=O)(=O)c2cccs2)c2ccccc2)c1 (stereo not given) | inconclusive: 25.1 µM [inhibitor, single point]
30 | CC1CCN(CCOc2ccc(C(=O)c3ccccc3)cc2)CC1 | inconclusive: 31.6 µM [inhibitor, single point]
31 | Cc1ccc(/C=C/C(=O)NCc2ccc3c(c2)OCO3)o1 | inactive
32 | COc1cccc(-c2nc(CS(=O)(=O)CC(=O)Nc3ccccc3Cl)c(C)o2)c1 | inactive
33 | COc1ccc(NC(=O)CN2C(=O)NC(c3ccccc3)(c3ccccc3)C2=O)cc1 | inconclusive: 35.5 µM [inhibitor, single point]
34 | CCOC(=O)CNC(=O)N1CCCC(CNS(=O)(=O)c2cccs2)C1 (stereo not given) | inconclusive: 0.501 µM [inhibitor, full curve, poor fit]
35 | O=C(Nc1ccon1)c1ccc2c(c1)OCO2 | inactive
36 | CCOC(=O)CCCCC(=O)NC(CO)C(=O)NC (stereo not given) | inconclusive: 2.51 µM [activator, single point]
37 | CCOC(=O)c1[nH]c2c(c1Cc1ccccc1)C(=O)CC(c1ccccc1)C2 (stereo not given) | inconclusive: 28.2 µM [inhibitor, single point]
38 | COC(=O)c1c(NC(=O)COC(=O)Cn2cnc3ccccc32)sc2c1CCCC2 | inconclusive: 0.794 µM [inhibitor, partial curve, poor fit]
39 | O=C(CSc1ncccn1)NCc1ccccc1 | inconclusive: 10.3 µM [activator, single point]
40 | N=c1n(Cc2ccccc2)c2ccccc2n1Cc1ccccc1 | inconclusive: 12.6 µM [inhibitor, partial curve, poor fit]
41 | CC1CCN(CCNC(=S)Nc2ccc(Cl)cc2)CC1 | inconclusive: 14.1 µM [inhibitor, single point]
42 | CC(=O)c1c(C)n(-c2ccccc2)c2ccc(OCC(O)CN3CCOCC3)cc12 (stereo not given) | inconclusive: 16.4 µM [inhibitor, partial curve]
43 | O=c1[nH]c(SCC2CCCCO2)nc2ccccc12 (stereo not given) | inactive
44 | CCOc1ccccc1N1CCN(C2=C(NS(=O)(=O)c3cccs3)C(=O)c3ccccc3C2=O)CC1 | inactive
45 | O=C(CN1C(=O)c2cccc([N+](=O)[O-])c2C1=O)N1CCN(c2ccc(F)cc2)CC1 | inactive
46 | O=C(CNC(=O)c1ccc(Cl)cc1)OCC(=O)c1ccccc1 | inconclusive: 28.2 µM [activator, single point]
47 | Fc1ccccc1CSc1ncnc2c1oc1ccccc12 | inconclusive: 23.1 µM [inhibitor, single point]
48 | CC(C)c1oc(=O)cc2c1[C@@H](O)[C@H]1OC(=O)[C@@]3(C)CC[C@@H](O)[C@@]2(C)C13 (stereo not given in full) | inconclusive: 4.61 µM [inhibitor, partial curve, poor fit]

Copied from above, entries 36–40
Row | SMILES | Potency
36 | CCOC(=O)CCCCC(=O)NC(CO)C(=O)NC (stereo not given) | inconclusive: 2.51 µM [activator, single point]
37 | CCOC(=O)c1[nH]c2c(c1Cc1ccccc1)C(=O)CC(c1ccccc1)C2 (stereo not given) | inconclusive: 28.2 µM [inhibitor, single point]
38 | COC(=O)c1c(NC(=O)COC(=O)Cn2cnc3ccccc32)sc2c1CCCC2 | inconclusive: 0.794 µM [inhibitor, partial curve, poor fit]
39 | O=C(CSc1ncccn1)NCc1ccccc1 | inconclusive: 10.3 µM [activator, single point]
40 | N=c1n(Cc2ccccc2)c2ccccc2n1Cc1ccccc1 | inconclusive: 12.6 µM [inhibitor, partial curve, poor fit]

Continued:

Row | SMILES | Potency
49 | C=CCc1ccc(OCCCOc2ccc(C(=O)O)cc2)c(OC)c1 | inactive
50 | CC1(C)C(=O)C=CC(=O)C(C)(C)C(=O)C=CC(=O)C(C)(C)C2=CC=C(O2)C(C)(C)C(=O)C=CC1=O | inconclusive: 20 µM [inhibitor, single point]
51 | O=C(CSc1ccccc1F)NC(=O)NCc1ccco1 | inactive
52 | Cc1ccccc1-n1c(SCC(=O)NC(N)=O)nc2sc(-c3ccccc3)cc2c1=O | inconclusive: 5.62 µM [activator, single point]
53 | O=C1Nc2cc(C(F)(F)F)ccc2N2CCCCC12 (stereo not given) | inconclusive: 0.501 µM [inhibitor, full curve, poor fit]
54 | O=[N+]([O-])c1cccc(-c2ncc3ccccn23)c1 | inactive
55 | O=C(Nc1cccc(O)c1)c1ccc(C(F)(F)F)cc1 | inconclusive: 35.5 µM [inhibitor, single point]
56 | O=S1(=O)CCN(Cc2cccc(Cl)c2)CC1 | inconclusive: 11.2 µM [inhibitor, single point]
57 | CCOC(=O)c1cc(C(=O)c2cccs2)n2ccc(C(C)=O)cc12 | inactive
58 | CN(C)S(=O)(=O)c1ccc(C(=O)Nc2nc3ccccc3[nH]2)cc1 | inactive
59 | Cc1ncc([N+](=O)[O-])n1CC(=O)Nc1ccc(F)cc1 | inactive
60 | N#C/C(=C\c1ccc(-c2ccc(S(=O)(=O)N3CCOCC3)cc2)o1)C(=O)NC1CC1 | inconclusive: 35.5 µM [inhibitor, single point]
61 | Cc1sc2ncnc(N3CCC(C(=O)N(C)CC(=O)Nc4ccccc4Br)CC3)c2c1C | inconclusive: 10 µM [inhibitor, partial curve, poor fit]
62 | Cc1ccc(-c2ccc(/C=C3\SC(N4CCOCC4)=NC3=O)o2)cc1 | inconclusive: 2.24 µM [inhibitor, full curve, poor fit]
63 | COc1ccc(COCC(O)CN2CCN(S(=O)(=O)c3ccc(C(C)C)cc3)CC2)cc1 (stereo not given) | inconclusive: 3.55 µM [inhibitor, partial curve, poor fit]
64 | O=C(NCc1ccccn1)C(F)(F)C(F)(F)C(=O)NCc1ccccn1 | inactive
65 | Cc1ccc(C(=O)Nc2nccc(-c3cccs3)n2)cc1 | inactive
66 | COC(=O)c1cnn2c3c(c(C)nc12)CCCC3 | inconclusive: 20.6 µM [activator, single point]
67 | Cc1ccc(Cn2ncc3c(N4CCN(CC#N)CC4)ncnc32)cc1 | inconclusive: 20 µM [inhibitor, single point]
68 | O=C(CCC(=O)Nc1ccccc1Cl)NNC(=S)Nc1ccccc1C(F)(F)F | inactive
69 | N#Cc1ccsc1NC(=O)COC(=O)CCCSc1nc2ccccc2s1 | inconclusive: 35.5 µM [inhibitor, single point]
70 | CC(=O)Nc1ccc(C)cc1-c1nc2ccccc2n(CC(=O)c2ccc(C)c(C)c2)c1=O | inconclusive: 35.5 µM [activator, single point]
